Publication PMC9167300
Results are given in words; binding and its absence hold for the method and conditions named. Binding seen in cells or lysates may run through a third protein. Some results given as binding are weak or reduced against the parent protein; the word gives no strength. Tags and fused reporters may be left off the sequences shown.

Assays:
[1] = biological target: T1, Flag-tagged full-length TRPM8 (Flag-TRPM8) (rat), Q8R455; assay: cross-linking; PANC-1 cells transfected, treated with 1 μM DSS for 30 min before harvest; lysates on Western blot; with or without HA-LCK, siLCK, GFP-14-3-3ζ or si14-3-3ζ; settings: remark: other sources report otherwise
[2] = biological target: T1, Flag-tagged full-length TRPM8 …; assay: co-IP; AsPC-1 cells co-transfected with Flag- and GFP-tagged TRPM8; IP with anti-Flag antibody; with or without HA-LCK, PP2, siLCK or si14-3-3ζ; Western blot; settings: remark: other sources report otherwise

binding [1]	binding [2]	Binder
binds		Flag-tagged full-length TRPM8 (Flag-TRPM8), Q8R455 1-1104 (protein) MSFEGARLSMRSRRNGTLGSTRTLYSSVSRSTDVSYSESDLVNFIQANFKKRECVFFTRDSKAMESICKCGYAQSQHIEGTQINQNEKWNYKKHTKEFPTDAFGDIQFETLGKKGKYLRLSCDTDSETLYELLTQHWHLKTPNLVISVTGGAKNFALKPRMRKIFSRLIYIAQSKGAWILTGGTHYGLMKYIGEVVRDNTISRNSEENIVAIGIAAWGMVSNRDTLIRNCDDEGHFSAQYIMDDFMRDPLYILDNNHTHLLLVDNGCHGHPTVEAKLRNQLEKYISERTSQDSNYGGKIPIVCFAQGGGRETLKAINTSVKSKIPCVVVEGSGQIADVIASLVEVEDVLTSSMVKEKLVRFLPRTVSRLPEEEIESWIKWLKEILESPHLLTVIKMEEAGDEVVSSAISYALYKAFSTNEQDKDNWNGQLKLLLEWNQLDLASDEIFTNDRRWESADLQEVMFTALIKDRPKFVRLFLENGLNLQKFLTNEVLTELFSTHFSTLVYRNLQIAKNSYNDALLTFVWKLVANFRRSFWKEDRSSREDLDVELHDASLTTRHPLQALFIWAILQNKKELSKVIWEQTKGCTLAALGASKLLKTLAKVKNDINAAGESEELANEYETRAVELFTECYSSDEDLAEQLLVYSCEAWGGSNCLELAVEATDQHFIAQPGVQNFLSKQWYGEISRDTKNWKIILCLFIIPLVGCGLVSFRKKPIDKHKKLLWYYVAFFTSPFVVFSWNVVFYIAFLLLFAYVLLMDFHSVPHTPELILYALVFVLFCDEVRQWYMNGVNYFTDLWNVMDTLGLFYFIAGIVFRLHSSNKSSLYSGRVIFCLDYIIFTLRLIHIFTVSRNLGPKIIMLQRMLIDVFFFLFLFAVWMVAFGVARQGILRQNEQRWRWIFRSVIYEPYLAMFGQVPSDVDSTTYDFSHCTFSGNESKPLCVELDEYNLPRFPEWITIPLVCIYMLSTNILLVNLLVAMFGYTVGIVQENNDQVWKFQRYFLVQEYCNRLNIPFPFVVFAYFYMVVKKCFKCCCKEKNTESSACCFRNEDNETLAWEGVMKENYLVKINTKANDNAEEMRHRFRQLDTKLNDLKGLLKEIANKIK
	binds	GFP-tagged wild-type TRPM8 (GFP-TRPM8), Q8R455 1-1104 (protein) MSFEGARLSMRSRRNGTLGSTRTLYSSVSRSTDVSYSESDLVNFIQANFKKRECVFFTRDSKAMESICKCGYAQSQHIEGTQINQNEKWNYKKHTKEFPTDAFGDIQFETLGKKGKYLRLSCDTDSETLYELLTQHWHLKTPNLVISVTGGAKNFALKPRMRKIFSRLIYIAQSKGAWILTGGTHYGLMKYIGEVVRDNTISRNSEENIVAIGIAAWGMVSNRDTLIRNCDDEGHFSAQYIMDDFMRDPLYILDNNHTHLLLVDNGCHGHPTVEAKLRNQLEKYISERTSQDSNYGGKIPIVCFAQGGGRETLKAINTSVKSKIPCVVVEGSGQIADVIASLVEVEDVLTSSMVKEKLVRFLPRTVSRLPEEEIESWIKWLKEILESPHLLTVIKMEEAGDEVVSSAISYALYKAFSTNEQDKDNWNGQLKLLLEWNQLDLASDEIFTNDRRWESADLQEVMFTALIKDRPKFVRLFLENGLNLQKFLTNEVLTELFSTHFSTLVYRNLQIAKNSYNDALLTFVWKLVANFRRSFWKEDRSSREDLDVELHDASLTTRHPLQALFIWAILQNKKELSKVIWEQTKGCTLAALGASKLLKTLAKVKNDINAAGESEELANEYETRAVELFTECYSSDEDLAEQLLVYSCEAWGGSNCLELAVEATDQHFIAQPGVQNFLSKQWYGEISRDTKNWKIILCLFIIPLVGCGLVSFRKKPIDKHKKLLWYYVAFFTSPFVVFSWNVVFYIAFLLLFAYVLLMDFHSVPHTPELILYALVFVLFCDEVRQWYMNGVNYFTDLWNVMDTLGLFYFIAGIVFRLHSSNKSSLYSGRVIFCLDYIIFTLRLIHIFTVSRNLGPKIIMLQRMLIDVFFFLFLFAVWMVAFGVARQGILRQNEQRWRWIFRSVIYEPYLAMFGQVPSDVDSTTYDFSHCTFSGNESKPLCVELDEYNLPRFPEWITIPLVCIYMLSTNILLVNLLVAMFGYTVGIVQENNDQVWKFQRYFLVQEYCNRLNIPFPFVVFAYFYMVVKKCFKCCCKEKNTESSACCFRNEDNETLAWEGVMKENYLVKINTKANDNAEEMRHRFRQLDTKLNDLKGLLKEIANKIK
